# Measurements as given in publication PMC7819943, “Rice protein-binding microarrays: a tool to detect cis-acting elements near promoter regions in rice”.
# Some of the results follow.
# Target: T1, OsSMF1 (Oryza sativa, UniProt Q6ZLB0 1-436)
# T1 sequence: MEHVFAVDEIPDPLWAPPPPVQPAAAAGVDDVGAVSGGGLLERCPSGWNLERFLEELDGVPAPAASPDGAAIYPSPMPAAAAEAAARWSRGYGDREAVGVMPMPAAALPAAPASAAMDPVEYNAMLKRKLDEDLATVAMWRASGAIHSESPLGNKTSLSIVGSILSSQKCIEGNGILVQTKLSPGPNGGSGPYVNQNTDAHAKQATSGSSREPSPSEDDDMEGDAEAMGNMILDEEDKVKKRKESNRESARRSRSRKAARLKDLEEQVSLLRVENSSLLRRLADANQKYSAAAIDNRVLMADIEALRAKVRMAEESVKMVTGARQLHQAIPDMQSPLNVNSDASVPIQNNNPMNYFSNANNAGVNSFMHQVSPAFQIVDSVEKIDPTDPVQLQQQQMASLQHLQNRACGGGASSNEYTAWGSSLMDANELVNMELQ
# Assay: protein-binding microarray (RPBM); PBS, 2% BSA, 51.3 ng/ul salmon testes DNA, 50 uM zinc acetate, 200 nM TF, 25 C, 1 h; high values mean tight binding
# Details: protein: recombinant; tags: N-terminal polyhistidine and DsRed monomer fusion (pET32a); chain copies: 2; label: CyDye5-dUTP incorporated in the synthesized complementary strand; 3' TTTTT single-stranded linker to array surface; dsDNA, one strand shown
# Outline: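 Binding signal is reported as fluorescence intensity per feature (arbitrary units) from an Axon 4000B scanner. Incubation used 200 nM of each Ni–NTA-purified, N-terminally polyhistidine- and DsRed-fused transcription factor from E. coli BL21-CodonPlus on a double-stranded custom Agilent array for 1 h at 25 °C, with 50 µM zinc acetate in the buffer, followed by washing.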
row,Sequence,binding signal
1,TTTTCAGCCTCGATCAGCTCTCCTGGGGTTGGTTGGTTGGCGGAGTCACCTAGTGCAG,3600 fluorescence intensity (a.u.)
2,TGGGATAGGAGAGGTTAAGACTTGAGCGTGGATTTGGGTCCGGAGTCACCTAGTGCAG,3330 fluorescence intensity (a.u.)
3,CATGCCCATCCTCGGCGCCGCCGTCACCGACTCTTGCTGACGGAGTCACCTAGTGCAG,4820 fluorescence intensity (a.u.)
4,TCACCAATCACCTGCCCTCACACCAACACGCCACGCGAACCGGAGTCACCTAGTGCAG,3750 fluorescence intensity (a.u.)
5,TGGGCGATTGGGGCGGCAACCGGCCGATGACGAGGAGAAACGGAGTCACCTAGTGCAG,3230 fluorescence intensity (a.u.)
6,GGGCAGACATTCCATGCCATGTGGCTTGAGTTATGCATTGCGGAGTCACCTAGTGCAG,6590 fluorescence intensity (a.u.)
7,AAATAAATAATAGGTGACGTAATCTATTAATAGTGTAGTTCGGAGTCACCTAGTGCAG,3830 fluorescence intensity (a.u.)
8,CTCCTCCTCTGATCTTCTCCTCCTTGTCATGCGATCGAGCCGGAGTCACCTAGTGCAG,4300 fluorescence intensity (a.u.)
9,CGCGTCCCTTGTTGCCACGCACTACCCGAGTACTCCGCCTCGGAGTCACCTAGTGCAG,3780 fluorescence intensity (a.u.)
10,TCCGCCGCCCTAACCAGTCACCACCGCCACCAACGCAGCGCGGAGTCACCTAGTGCAG,3600 fluorescence intensity (a.u.)
11,TTGGTGAGGGTTTGGGTTTGGTGGTGGAGTGGAGTGGAGTCGGAGTCACCTAGTGCAG,3220 fluorescence intensity (a.u.)
12,AGCAAAGCTGCCAGAGCACGGCACAGCACACAGGTGACGGCGGAGTCACCTAGTGCAG,3450 fluorescence intensity (a.u.)
13,CTCTAAATTTGTTCGTCCGTGTCGTCCAGGTCACCAAACTCGGAGTCACCTAGTGCAG,7370 fluorescence intensity (a.u.)
14,AATGTCCAAATTCTTTGTATTATTATATGCCACATCTTAGCGGAGTCACCTAGTGCAG,4510 fluorescence intensity (a.u.)
15,GCTCCAAAACGAGTGGATTTGAGAAGAAGAGATGACGGGGCGGAGTCACCTAGTGCAG,5830 fluorescence intensity (a.u.)
16,AAGTGCAGTTTTGTATTATTCACGTTCAACGTTTGACCACCGGAGTCACCTAGTGCAG,3280 fluorescence intensity (a.u.)
17,TTTCCAACAGAGAAAAGAAATCTGCAAATGCCATACGGTGCGGAGTCACCTAGTGCAG,6390 fluorescence intensity (a.u.)
18,GTGCATTGCCCGCGTGTCCGGCGTGCGCGAGGGTTTAAACCGGAGTCACCTAGTGCAG,3210 fluorescence intensity (a.u.)
19,AGTATCCGACGTGGCGAACACTGTCCACCTCATACCCGGGCGGAGTCACCTAGTGCAG,15000 fluorescence intensity (a.u.)
20,CAGCCTCCGTAGCAGACACGTACAACGTACCGAGCAACCTCGGAGTCACCTAGTGCAG,3710 fluorescence intensity (a.u.)
21,TGTCCAATCTGGGAAGTGGGAACGAAGGCATTGAGATGAGCGGAGTCACCTAGTGCAG,19800 fluorescence intensity (a.u.)

# As entered above:
# CTCCTCCTCTGATCTTCTCCTCCTTGTCATGCGATCGAGCCGGAGTCACCTAGTGCAG | binding signal: 4300 fluorescence intensity (a.u.)
# CATGCCCATCCTCGGCGCCGCCGTCACCGACTCTTGCTGACGGAGTCACCTAGTGCAG | binding signal: 4820 fluorescence intensity (a.u.)

# Following part.

row,Sequence,binding signal
1,TGCTACAGGTGACGATCAGTCGACACATCATGCCTTATCGCGGAGTCACCTAGTGCAG,7660 fluorescence intensity (a.u.)
2,CCATGCCCAACTTCATCGTCAACAAGCAATGACCAAAGCGCGGAGTCACCTAGTGCAG,3200 fluorescence intensity (a.u.)
3,ACCCTGACATGTTCCTGGTTGATCCCTCGGAATCGCCGCACGGAGTCACCTAGTGCAG,3200 fluorescence intensity (a.u.)
4,GCGCGGAATTGGCCTGCAAAGCCACGGTCCCCACTACCACCGGAGTCACCTAGTGCAG,10000 fluorescence intensity (a.u.)
5,TTCATCAGCTGAGGTCGGCACTTGCTCATCTTTGCCGATTCGGAGTCACCTAGTGCAG,3180 fluorescence intensity (a.u.)
6,CACCCATCTCCTTGCCGGCCTCTCCACCCCGCCTCTTTCGCGGAGTCACCTAGTGCAG,19000 fluorescence intensity (a.u.)
7,GTATATATATATATATGTGTGTGTGTGTGTATATATATATCGGAGTCACCTAGTGCAG,4370 fluorescence intensity (a.u.)
8,CGCCAGCTGTACGTAGATCGCGTCACCCGAGCAGCGTTTCCGGAGTCACCTAGTGCAG,5200 fluorescence intensity (a.u.)
9,TATCCGCACCACGCCACGCCACGACACCGAAACCGACTTCCGGAGTCACCTAGTGCAG,7350 fluorescence intensity (a.u.)
10,TGGGCCATCCTATCCATCCATCTCATCATCCCATCGCCCACGGAGTCACCTAGTGCAG,4300 fluorescence intensity (a.u.)
11,TCGTGAGGCGAGAGGGCACGTGACGCGGTGGGGCCCACCTCGGAGTCACCTAGTGCAG,3930 fluorescence intensity (a.u.)
12,TCTCGGCCGGCCCATTTCCTCCCCGTCAGCCCACAACCAGCGGAGTCACCTAGTGCAG,4610 fluorescence intensity (a.u.)
13,GTTAGTGGTAGTAAGTAGTTAACCTTATGACGAAGTAATCCGGAGTCACCTAGTGCAG,3240 fluorescence intensity (a.u.)
14,TTATTAACTTCTAACTTGACGATGCTCAGAGGCGACGCAACGGAGTCACCTAGTGCAG,32400 fluorescence intensity (a.u.)
15,AATCAAGCCACTAAAACCCCAGCTAATAACTATAAGTACGCGGAGTCACCTAGTGCAG,17900 fluorescence intensity (a.u.)
16,CTATGACGGGTCGAAAACGGAACCCGTCAAAGATGAGTTACGGAGTCACCTAGTGCAG,18300 fluorescence intensity (a.u.)
17,GAAAATGGTTTACACAACGTACCGCCATGTCAATGTTATCCGGAGTCACCTAGTGCAG,3370 fluorescence intensity (a.u.)
18,GTTTATTATTATTGCGTGTAACTGACATGTGGGCCCAATGCGGAGTCACCTAGTGCAG,4830 fluorescence intensity (a.u.)
19,CCAACGTCGAGGATCCTGTGAGCCAGCGCGTGCATGCCGCCGGAGTCACCTAGTGCAG,3370 fluorescence intensity (a.u.)
20,ATTGAAACATGATCCGAGTCATAGCCTGACTGGAATTCTTCGGAGTCACCTAGTGCAG,5810 fluorescence intensity (a.u.)
21,CCATATATTCCCTTGCACACACACGCAGTCAGGGCAGGCACGGAGTCACCTAGTGCAG,3770 fluorescence intensity (a.u.)
